## Screening data

By UniProt entry, the sequences of proteins in these tests, tags left out.
UniProt O94782, whole entry, looked up, target on record: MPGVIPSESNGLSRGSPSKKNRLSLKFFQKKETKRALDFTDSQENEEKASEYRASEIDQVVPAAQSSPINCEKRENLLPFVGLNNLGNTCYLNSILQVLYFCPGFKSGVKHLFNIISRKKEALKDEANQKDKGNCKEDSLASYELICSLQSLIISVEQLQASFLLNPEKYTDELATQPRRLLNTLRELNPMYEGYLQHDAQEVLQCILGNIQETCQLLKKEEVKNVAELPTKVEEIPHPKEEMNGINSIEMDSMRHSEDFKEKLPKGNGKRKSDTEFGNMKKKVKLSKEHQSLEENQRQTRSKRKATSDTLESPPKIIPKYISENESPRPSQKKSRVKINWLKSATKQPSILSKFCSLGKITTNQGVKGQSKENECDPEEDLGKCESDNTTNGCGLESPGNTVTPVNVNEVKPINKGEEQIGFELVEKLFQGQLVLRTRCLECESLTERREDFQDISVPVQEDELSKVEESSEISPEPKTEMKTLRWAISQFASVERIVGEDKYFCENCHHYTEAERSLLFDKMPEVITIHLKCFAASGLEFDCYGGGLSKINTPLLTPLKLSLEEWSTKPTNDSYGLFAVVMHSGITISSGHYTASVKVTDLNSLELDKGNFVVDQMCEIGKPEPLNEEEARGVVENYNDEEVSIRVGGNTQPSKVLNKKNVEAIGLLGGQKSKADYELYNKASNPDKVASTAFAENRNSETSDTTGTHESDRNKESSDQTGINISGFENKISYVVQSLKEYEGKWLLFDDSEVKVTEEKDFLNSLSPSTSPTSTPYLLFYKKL

Source: PubChem BioAssay AID504865 (NCATS, 2011).

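Purified human USP1/UAF1 enzyme complex; fluorescence from ubiquitin-rhodamine substrate cleavage, read kinetically six times at one-minute intervals after substrate addition. Compounds were titrated over 13 concentrations from about 0.0037 µM up to roughly 110 µM, the top dose varying by compound. The value is the fitted AC50 from the dose-response series, and a lower number means a more potent inhibitor. Calls come from curve class and fitted log AC50: scores 40-100 are active, 1-39 inconclusive (as here, weak, partial or poorly fitted curves), and 0 inactive.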

Values are in µM. Every entry below has the call inconclusive. Only part of the assay is shown, chiefly results filed as inconclusive. A potency from a partial, single-point or poor curve is only a rough figure. Some entries filed as inconclusive have a full curve. Activity scores are not listed here.

structure,Potency (µM),curve as filed
COc1ccc(-c2nc(C(=O)N3CCN(C)CC3)sc2-c2ccc(OC)cc2)cc1,56.23,"inhibitor, partial curve, poor fit"
CN1C(=O)CN2CCc3ccccc3C2c2cc(Cl)ccc21 (centres undefined),79.43,"inhibitor, partial curve, poor fit"
CNc1nc(-c2ccccc2C(F)(F)F)nc2ccccc12,50.12,"inhibitor, partial curve, poor fit"
CN[C@H]1CC[C@@H](c2ccc(Cl)c(Cl)c2)c2ccccc21,56.23,"inhibitor, partial curve, poor fit"
O=C(c1ccccc1)[C@@H]1O[C@H]1c1ccc(-c2ccccc2)cc1,35.48,"inhibitor, partial curve, poor fit"
CC(=O)OC1CCC2C3CCc4cc(O)ccc4C3CCC12C (centres undefined),31.62,"inhibitor, partial curve"
N#Cc1cccc(-c2nccc(NCc3ccccc3)n2)c1,31.62,"inhibitor, partial curve, poor fit"
O=C1C=CC(=C(c2ccc(O)cc2)c2ccc(O)cc2)C=C1,56.23,"inhibitor, partial curve, poor fit"
CCn1cc(C(=O)O)c(=O)c2cc(F)c(N3CCNCC3)cc21,39.81,"inhibitor, partial curve, poor fit"
NC[C@@H](O)c1ccc(O)c(O)c1,112.2,"inhibitor, partial curve, poor fit"
CN(C)c1ccc(-c2cc(Nc3ccc(F)cc3)ncn2)cc1,22.39,"inhibitor, partial curve, poor fit"
CC(=O)N1CCN(c2ccc(OC[C@H]3CO[C@](Cn4ccnc4)(c4ccc(Cl)cc4Cl)O3)cc2)CC1,44.67,"inhibitor, partial curve, poor fit"
Cc1nc2sccn2c(=O)c1CCN1CCC(=C(c2ccc(F)cc2)c2ccc(F)cc2)CC1,39.81,"inhibitor, full curve, poor fit"
CCCCCCCCCCCCCCCC(=O)O,56.23,"inhibitor, partial curve, poor fit"
C(=C/c1ccccc1)/CN1CCN(CCOC(c2ccccc2)c2ccccc2)CC1,56.23,"inhibitor, partial curve, poor fit"
C[C@]12CC[C@H]3c4ccc(O)cc4CC[C@@H]3[C@H]1CC[C@@H]2OC(=O)CCC1CCCC1,25.12,"inhibitor, full curve"
C=NC(C(=O)NC1C(=O)N2C1SC(C)(C)C2C(=O)O)c1ccccc1 (centres undefined),79.43,"inhibitor, partial curve, poor fit"
CNc1nc(-c2ccccc2Cl)nc2ccccc12,50.12,"inhibitor, partial curve"
COC1CC2CCC(C)[C@](O)(O2)C(=O)C(=O)N2CCCCC2C(=O)OC(C(C)CC2CCC(O)C(OC)C2)CC(=O)C(C)/C=C(/C)C(O)C(OC)C(=O)C(C)CC(C)C=CC=C/C=C\1C (some centres undefined),35.48,"inhibitor, partial curve"
Cc1c(-c2ccc(Cl)cc2)noc1C1CCN(CCc2ccccc2)CC1,22.39,"inhibitor, partial curve"
COC(=O)CC[C@@H](C)[C@H]1CC[C@H]2[C@@H]3CC[C@@H]4C[C@H](O)CC[C@]4(C)[C@H]3C[C@H](O)[C@]12C,63.1,"inhibitor, partial curve, poor fit"
CC(=O)c1c(O)cc(O)cc1O,28.18,"inhibitor, full curve, poor fit"

The first 2 entries again:

Result for COc1ccc(-c2nc(C(=O)N3CCN(C)CC3)sc2-c2ccc(OC)cc2)cc1 was Potency 56.23 µM (inhibitor, partial curve, poor fit).
Result for CN1C(=O)CN2CCc3ccccc3C2c2cc(Cl)ccc21 (centres undefined) was Potency 79.43 µM (inhibitor, partial curve, poor fit).